# Results taken from PubChem BioAssay AID504648 (National Center for Advancing Translational Sciences (NCATS), 2011).
# About 610 (0.16%) of roughly 390,000 compounds were called active. Inconclusive results, whose numbers are uncertain, are shown with a selection of clear calls. The call rests on the fitted dose curve; in most records, active means well fitted inhibition curve with a large enough effect; inconclusive means small, poorly fitted or top-dose-only effect, or effect the other way, or another doubt; inactive means no such curve, though single readings can be large or run the other way. Potencies beside an inconclusive call are fits to weak or partial responses and may not hold up.
# Assay: Nrf2 qHTS screen for inhibitors: counterscreen for cytotoxicity
# Details: A549 ARE-Fluc cells, CellTiter-Fluor viability, 18-24 h; series mostly up to 46 µM
# Method in brief: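 A549 ARE_Fluc cells in 5% FBS OPTI-MEM were exposed to compounds in concentration-response for 18-24 h at 37 deg C. Viability was read by CellTiter-Fluor fluorescence (Ex 405/Em 525) after 30 min, before the luciferase read.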
# Potency means the concentration at half of the fitted maximal effect.
row,Structure (SMILES),Potency
1,COc1ccc(-c2nn(-c3ccccc3)cc2/C=N/Nc2ccc(S(N)(=O)=O)cc2[N+](=O)[O-])cc1OC,"inconclusive: 18.4 µM [falling, partial curve]"
2,O=C(NCCCO)c1c(O)c2cccc3c2n(c1=O)CCC3,inactive
3,COC(=O)CCC(=O)OC1(C)C(=O)C=C2C=C(C3CC3)N(CCCOC(C)C)C=C2C1=O (configuration not stated),"inconclusive: 20.6 µM [falling, single point]"
4,O=C(OC1CCN(c2ccc([N+](=O)[O-])cc2)CC1)c1ccccc1,"inconclusive: 7.31 µM [falling, partial curve, poor fit]"
5,O=C(CNS(=O)(=O)c1c(Cl)cccc1Cl)OCC(=O)c1ccc[nH]1,"inconclusive: 29.1 µM [falling, single point]"
6,Cc1nc2ccccn2c1P(=Nc1ccccc1)(N(C)C)N(C)C,"inconclusive: 29.1 µM [activator, single point]"
7,COc1cc(CNC(=O)C2CCCCN2S(=O)(=O)c2ccc(F)cc2)cc(OC)c1OC (configuration not stated),inactive
8,CCCCCCC(=O)c1c(C)[nH]c(C(=O)OCC)c1C,"inconclusive: 32.6 µM [falling, partial curve, poor fit]"
9,O=c1c(Cl)c(Cl)cnn1-c1ccccc1,"inconclusive: 29.1 µM [falling, single point]"
10,CCCc1c(O)c2ccccc2[nH]c1=O,inactive
11,Cc1c(Cl)cccc1NC(=O)Cn1cc(C(=O)c2cccs2)c2ccccc21,"inconclusive: 23.1 µM [falling, partial curve, poor fit]"
12,CC(=O)C1=C(O)C(=O)N(Cc2ccco2)C1c1ccc(F)cc1 (configuration not stated),inactive
13,Cc1ccc2cccc(NC(=O)COc3ccccc3Cl)c2n1,inactive
14,CCOC(=O)COn1c(SCC(=O)OCC)nc2ccccc2c1=O,"inconclusive: 29.1 µM [falling, partial curve, poor fit]"
15,Cc1ccc(-c2nc(CS(=O)CC(=O)N3CCN(c4cccc(Cl)c4)CC3)c(C)o2)cc1 (configuration not stated),"inconclusive: 29.1 µM [falling, single point]"
16,O=C(Nc1cccc(O)c1)c1noc2c1CCc1ccccc1-2,"inconclusive: 23.1 µM [falling, partial curve, poor fit]"
17,CN(C)/C=C1\SC(=S)N(c2ccc(Br)cc2)C1=O,"inconclusive: 18.4 µM [falling, single point]"
18,Cc1ccc(NS(=O)(=O)c2ccc(NC(=O)c3cccc(NC(=O)C(C)C)c3)cc2)cc1,"inconclusive: 29.1 µM [falling, single point]"
19,S=C1SCN(Cc2cccnc2)CN1Cc1cccnc1,"inconclusive: 29.1 µM [falling, single point]"
20,COc1ccccc1N1CCN(C(c2ccc(Cl)cc2)c2nnnn2C(C)(C)C)CC1 (configuration not stated),"inconclusive: 18.4 µM [falling, single point]"
21,O=C(CSc1nc(-c2cccc(F)c2)[nH]c1-c1ccccc1)Nc1ccc2c(c1)OCCO2,"inconclusive: 29.1 µM [falling, partial curve, poor fit]"

# Three records drawn at random from the list so far:
row,Structure (SMILES),Potency
13,Cc1ccc2cccc(NC(=O)COc3ccccc3Cl)c2n1,inactive
17,CN(C)/C=C1\SC(=S)N(c2ccc(Br)cc2)C1=O,"inconclusive: 18.4 µM [falling, single point]"
18,Cc1ccc(NS(=O)(=O)c2ccc(NC(=O)c3cccc(NC(=O)C(C)C)c3)cc2)cc1,"inconclusive: 29.1 µM [falling, single point]"

# (cont.)

row,Structure (SMILES),Potency
1,C=CCC[C@@H](Cc1ccc(F)cc1)C(=O)OC[C@@H](Cc1c[nH]c2ccccc12)NC(=O)[C@H](CC=C)CC(=O)N[C@H](CO)Cc1ccccc1,"inconclusive: 29.1 µM [falling, single point]"
2,CCOC(=O)c1c(C)[nH]c(C(=O)CSc2ccc(Cl)cc2)c1C,"inconclusive: 4.61 µM [falling, partial curve, poor fit]"
3,CCN(CC(=O)Nc1ccccc1OC)C(=O)c1ccc2[nH]c3c(c2c1)CC(C)CC3 (configuration not stated),"inconclusive: 23.1 µM [falling, single point]"
4,CCN1CCS/C1=C/C=C/C1=[N+](CC)CCS1,"inconclusive: 16.4 µM [falling, single point]"
5,COc1ccc(/C=N/NC(=O)C2COc3ccccc3O2)cc1OC (configuration not stated),inactive
6,CC1CN(S(=O)(=O)c2ccc(NC(=O)c3cc(-c4ccccc4O)n[nH]3)cc2)CC(C)O1 (configuration not stated),"inconclusive: 29.1 µM [falling, single point]"
7,COc1ccc(COC(=O)c2c(C)nn(-c3ccccc3)c2Cl)cc1,"inconclusive: 13 µM [activator, partial curve, poor fit]"
8,COc1ccc(Cl)cc1NC(=O)C(C)N1CCN(C/C=C/c2ccccc2)CC1 (configuration not stated),"inconclusive: 8.2 µM [falling, partial curve]"
9,O=C1c2ccccc2C2=Nc3ccccc3SC(c3ccccc3F)C12 (configuration not stated),"inconclusive: 4.61 µM [falling, single point]"
10,CCC1=C(OC(=O)N(CC)CC)N2C(=O)OC(=NCC3CC3)[C@]2(Cc2ccccc2)[C@H]2C1=CC[C@H]1C(=O)NC(=O)[C@H]12,"inconclusive: 11.6 µM [falling, partial curve, poor fit]"
11,CCN(C(=O)CSc1nc2ccccc2n1CC(=O)Nc1ccc(F)cc1F)c1ccccc1,inactive
12,N#Cc1nc(Nc2cc(F)cc(F)c2)c2ncn(C3CCCC3)c2n1,inactive
13,CCCCCCn1c(N2CCN(c3cccc(Cl)c3)CC2)nc2c1c(=O)[nH]c(=O)n2C,"inconclusive: 18.4 µM [falling, single point]"
14,Cc1ccc(C(=O)NCCCNCCCN(C)C)cn1,"inconclusive: 16.4 µM [activator, partial curve, poor fit]"
15,Cn1c(=O)oc2cc(S(=O)(=O)N3CCC(C(=O)N4CCN(c5ccc(Cl)cc5)CC4)CC3)ccc21,inactive
16,O=C(NCCc1ccccc1)c1ccc(Cl)c(S(=O)(=O)N2CCCC2)c1,inactive
17,CCOc1ccccc1C(=O)N1c2ccccc2Sc2ccccc21,"inconclusive: 18.4 µM [falling, partial curve, poor fit]"
18,CCN(CC)CCCNC(=O)c1cc(Nc2ccc(OC)cc2)nc2ccccc12,inactive
19,CCOc1ccc(C2C=C(c3ccc(C)cc3)Nc3nnnn32)cc1 (configuration not stated),"inconclusive: 20.6 µM [activator, single point]"
20,CCn1c(O)c(C=Nc2ccccc2)sc1=S,"inconclusive: 23.1 µM [falling, partial curve, poor fit]"
21,O=C1OCCC1Sc1nnc(-c2cccnc2)n1-c1ccccc1F (configuration not stated),inactive

row,Structure (SMILES),Potency
1,CCc1ccc(-c2nc(CN3CCC(C(=O)NCc4ccccc4OC)CC3)c(C)o2)cc1,"inconclusive: 16.4 µM [falling, single point]"
2,COc1ccc(NC(=O)N2CCCC(c3nc(-c4ccc(C(C)C)cc4)no3)C2)cc1 (configuration not stated),"inconclusive: 18.4 µM [falling, single point]"
3,Cc1ccc(/C=C(\NC(=O)c2ccccc2)C(=O)N2CCCCC2)cc1,"inconclusive: 4.61 µM [activator, single point]"
4,CCN(CC)C(=O)[C@H]1C[C@H](CC(=O)NCCc2ccccn2)C(=O)N2CCc3c([nH]c4cc(-c5ccco5)ccc34)[C@]12C,"inconclusive: 29.1 µM [falling, single point]"
5,Cc1oc2cc([N+](=O)[O-])c(O)c([N+](=O)[O-])c2c1C(=O)c1ccc(Br)cc1,"inconclusive: 8.2 µM [falling, partial curve, poor fit]"
6,CCCCOc1ccc(C(=O)N/C(=C\c2ccc(Br)cc2)C(=O)NC2CCCCC2)cc1,inactive
7,CCc1ccc(-n2nc(C)c3c(C)cc(=O)n(CC(=O)Nc4ccccc4C(=O)OC)c32)cc1,inactive
8,c1ccc(Cc2nnc3sc(-c4ccccn4)nn23)cc1,"inconclusive: 32.6 µM [activator, partial curve, poor fit]"
9,O=[N+]([O-])c1ccc(N/N=C/c2cccc(O)c2O)cc1,"inconclusive: 29.1 µM [falling, single point]"
10,CCOC(=O)C1=C(C)Nc2sc(C(=O)c3ccc(OC)cc3)c(N)c2C1c1ccc(C(=O)OC)cc1 (configuration not stated),"inconclusive: 32.6 µM [falling, partial curve, poor fit]"
11,O=C1/C(=C/c2ccc(N3CCOCC3)o2)SC(=Nc2ccccc2)N1CCc1c[nH]c2ccccc12,"inconclusive: 29.1 µM [falling, single point]"
12,Cc1ccc(-c2cc(C(F)F)nc(S(C)(=O)=O)n2)cc1,"inconclusive: 18.4 µM [falling, single point]"
13,COc1ccc(-c2cc(C(=O)NCC(c3ccccc3)N(C)C)c3ccccc3n2)cc1OC (configuration not stated),"inconclusive: 16.4 µM [falling, partial curve, poor fit]"
14,O=C(O)c1cccc(-n2cccc2/C=C2/SC(=O)N(CC(=O)N3CCCC3)C2=O)c1,"inconclusive: 32.6 µM [falling, partial curve, poor fit]"
15,CCOc1ccc(CN(C)C(=O)CCc2ccc(S(=O)(=O)N3CCCCCC3)cc2)cc1,"inconclusive: 29.1 µM [falling, single point]"
16,O=S(=O)(NCCO)c1ccc2c(c1)Cc1cc(S(=O)(=O)NCCO)ccc1-2,inactive
17,CCN(CC)S(=O)(=O)c1cccc(C(=O)Nc2nc3cc4c(cc3s2)OCCO4)c1,"inconclusive: 20.6 µM [falling, partial curve, poor fit]"
18,Fc1ccc(-[n+]2nc(Nc3ccccc3)sc2-c2c3ccccc3cc3ccccc23)cc1,"inconclusive: 16.4 µM [falling, single point]"
19,CCC1CCCCN1S(=O)(=O)c1ccc(C(=O)Nc2nnc(C3CC3)o2)cc1 (configuration not stated),inactive
20,NC(=O)CC(NC(=O)c1ccc(Br)cc1)c1ccc(N2CCC(Br)CC2)c([N+](=O)[O-])c1 (configuration not stated),"inconclusive: 32.6 µM [falling, partial curve, poor fit]"
